Source: article doi:10.1101/435867
Results are given in words; binding and its absence hold for the method and conditions named. Binding seen in cells or lysates may run through a third protein. Some results given as binding are weak or reduced against the parent protein; the word gives no strength.

Chains of the proteins cited; added tags and fusions are not shown. Residues count along the entry.
UniProt Q16620, residues 32-822: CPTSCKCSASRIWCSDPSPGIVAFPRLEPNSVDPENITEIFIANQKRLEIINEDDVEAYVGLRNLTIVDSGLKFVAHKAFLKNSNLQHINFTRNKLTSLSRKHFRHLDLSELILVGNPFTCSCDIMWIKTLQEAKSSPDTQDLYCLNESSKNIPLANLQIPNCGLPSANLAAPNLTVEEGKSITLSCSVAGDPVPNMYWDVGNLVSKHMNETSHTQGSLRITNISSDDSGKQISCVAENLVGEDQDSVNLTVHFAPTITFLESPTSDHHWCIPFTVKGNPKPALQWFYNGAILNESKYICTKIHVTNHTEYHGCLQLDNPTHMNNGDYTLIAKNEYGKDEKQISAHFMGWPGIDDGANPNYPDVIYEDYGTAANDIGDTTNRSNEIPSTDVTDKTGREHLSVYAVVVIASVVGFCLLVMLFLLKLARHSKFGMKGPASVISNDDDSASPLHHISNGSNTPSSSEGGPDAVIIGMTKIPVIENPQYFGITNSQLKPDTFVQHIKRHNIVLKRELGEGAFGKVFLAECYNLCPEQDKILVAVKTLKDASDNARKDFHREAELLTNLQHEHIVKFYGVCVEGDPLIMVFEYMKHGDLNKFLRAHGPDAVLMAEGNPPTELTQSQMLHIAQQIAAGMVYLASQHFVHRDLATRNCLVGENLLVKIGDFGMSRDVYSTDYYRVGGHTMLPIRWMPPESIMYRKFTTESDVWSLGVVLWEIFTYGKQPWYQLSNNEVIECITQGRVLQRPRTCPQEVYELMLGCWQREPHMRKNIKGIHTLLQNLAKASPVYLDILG

Biological target: TrkB (UniProt Q16620)
Assay: pull-down

binding: binds
Substance: TrkB (from UniProt Q16620 32-822) (receptor)
